PubChem BioAssay AID1259308 | NCATS – 2017
Screen: 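Knock-downs that increase output of a recombinant reporter protein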 (primary screen). Cell system: human HEK293 embryonic kidney cells stably expressing firefly luciferase (HEK-CMV-Luc2-Hygro). Reagent: single siRNA against human genes, 0.8 pmol siRNA per well. Timing: 72 h. Detection: 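Reporter luminescence and viable-cell signal on separate replicate plates, given as percent of non-targeting control and median/MAD z-scores, plus per-cell luciferase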. Reading the numbers: total luciferase, z-score and total luciferase, % of control: higher = more reporter protein produced. Call rule: 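An siRNA counts as active if its total luciferase robust z-score exceeds 3; genes with two or more such siRNAs out of three were retested with fresh siRNAs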. Meaning of the calls: active = raised luciferase; inactive = no rise.
The whole screen tested about 59,000 reagents; this is a random part of them. About 1,510 of them (2.6%) were called active. 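Calls use total luciferase alone and ignore viability, so some active siRNAs may act by altering cell number.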 The numbers tell different reagents against one gene apart. Not all columns of the deposit are shown.

With knock-down of ZC3H7A #1, the screen gave total luciferase, z-score 1.5; total luciferase, % of control 112; inactive. ZC3H7A #2 scored total luciferase, z-score 1.28; total luciferase, % of control 107; inactive. ZC3H7A #3 gave total luciferase, z-score -0.423; total luciferase, % of control 73.5; inactive. Silencing of MAPRE1 #1 came out at: total luciferase, z-score 0.462; total luciferase, % of control 91.1; inactive. Silencing of MAPRE1 #2 gave: total luciferase, z-score 0.125; total luciferase, % of control 84.4; inactive. With knock-down of MAPRE1 #3, the record shows total luciferase, z-score 0.288; total luciferase, % of control 87.6; inactive.

Depletion of C1orf167 #1 resulted in: total luciferase, z-score 1.21; total luciferase, % of control 106; inactive. With knock-down of C1orf167 #2, the screen gave total luciferase, z-score 2.12; total luciferase, % of control 124; inactive. Against C1orf167 #3, the entry reads total luciferase, z-score 0.799; total luciferase, % of control 97.8; inactive. ZNF155 #1 gave total luciferase, z-score -0.645; total luciferase, % of control 69.1; inactive. Depletion of ZNF155 #2 gave: total luciferase, z-score 0.769; total luciferase, % of control 97.2; inactive. With knock-down of ZNF155 #3 the results were total luciferase, z-score 1.99; total luciferase, % of control 121; inactive.

REEP1 #1 showed total luciferase, z-score 0.023; total luciferase, % of control 82.3; inactive. With knock-down of REEP1 #2 the results were total luciferase, z-score -1.44; total luciferase, % of control 53.3; inactive. REEP1 #3 scored total luciferase, z-score -2.04; total luciferase, % of control 41.4; inactive.

Targets listed so far whose target name begins with R or r (3):
REEP1 #1 → total luciferase, z-score = 0.023; total luciferase, % of control = 82.3; activity call = inactive
REEP1 #2 → total luciferase, z-score = -1.44; total luciferase, % of control = 53.3; activity call = inactive
REEP1 #3 → total luciferase, z-score = -2.04; total luciferase, % of control = 41.4; activity call = inactive

The listing continues:
FAM153B #1 scored total luciferase, z-score -0.0476; total luciferase, % of control 80.9; inactive. Depletion of FAM153B #2 came out at: total luciferase, z-score 1.03; total luciferase, % of control 102; inactive. For FAM153B #3, the values are total luciferase, z-score 0.497; total luciferase, % of control 91.8; inactive. With knock-down of CLP1 #1 the results were total luciferase, z-score -1.62; total luciferase, % of control 49.7; inactive. For CLP1 #2, the entry reads total luciferase, z-score -1.87; total luciferase, % of control 44.8; inactive. Knock-down of CLP1 #3 gave: total luciferase, z-score 1.13; total luciferase, % of control 104; inactive.

SCN2B #1 scored total luciferase, z-score 0.599; total luciferase, % of control 93.8; inactive. SCN2B #2 scored total luciferase, z-score -0.38; total luciferase, % of control 74.3; inactive. SCN2B #3 scored total luciferase, z-score 0.993; total luciferase, % of control 102; inactive. Silencing of HMGN1P21 #1 resulted in: total luciferase, z-score -2.17; total luciferase, % of control 38.8; inactive. HMGN1P21 #2 gave total luciferase, z-score 0.285; total luciferase, % of control 87.5; inactive. After knock-down of HMGN1P21 #3, the record shows total luciferase, z-score 0.793; total luciferase, % of control 97.7; inactive.

BPIFA3 #1 showed total luciferase, z-score -0.874; total luciferase, % of control 64.5; inactive. Silencing of BPIFA3 #2 resulted in: total luciferase, z-score 4.27; total luciferase, % of control 167; active. BPIFA3 #3 gave total luciferase, z-score -0.0659; total luciferase, % of control 80.6; inactive. ACTL8 #1 gave total luciferase, z-score 0.333; total luciferase, % of control 88.5; inactive. Knock-down of ACTL8 #2 came out at: total luciferase, z-score 0.308; total luciferase, % of control 88; inactive. Silencing of ACTL8 #3 resulted in: total luciferase, z-score -0.215; total luciferase, % of control 77.6; inactive.

Against ZNF624 #1 the deposit lists total luciferase, z-score -0.552; total luciferase, % of control 70.9; inactive. After knock-down of ZNF624 #2, the record shows total luciferase, z-score -0.447; total luciferase, % of control 73; inactive. Silencing of ZNF624 #3 came out at: total luciferase, z-score 0.111; total luciferase, % of control 84.1; inactive. Silencing of PM20D2 #1 came out at: total luciferase, z-score -0.563; total luciferase, % of control 70.7; inactive. Silencing of PM20D2 #2 gave: total luciferase, z-score 0.662; total luciferase, % of control 95; inactive. Against PM20D2 #3, the values are total luciferase, z-score -0.189; total luciferase, % of control 78.1; inactive.

Silencing of MYH8 #1 resulted in: total luciferase, z-score -0.565; total luciferase, % of control 70.6; inactive. Knock-down of MYH8 #2 gave: total luciferase, z-score 0.273; total luciferase, % of control 87.3; inactive. After knock-down of MYH8 #3 the results were total luciferase, z-score -0.754; total luciferase, % of control 66.9; inactive.
